Results are given in words; binding and its absence hold for the method and conditions named. In cells and extracts the contact can be indirect. Some results given as binding are weak or reduced against the parent protein; the word gives no strength.
Biological target: T1, βPix, endogenous in mouse kidney (mouse (endogenous in kidney tissue)) (UniProt Q9ES28)
T1 sequence: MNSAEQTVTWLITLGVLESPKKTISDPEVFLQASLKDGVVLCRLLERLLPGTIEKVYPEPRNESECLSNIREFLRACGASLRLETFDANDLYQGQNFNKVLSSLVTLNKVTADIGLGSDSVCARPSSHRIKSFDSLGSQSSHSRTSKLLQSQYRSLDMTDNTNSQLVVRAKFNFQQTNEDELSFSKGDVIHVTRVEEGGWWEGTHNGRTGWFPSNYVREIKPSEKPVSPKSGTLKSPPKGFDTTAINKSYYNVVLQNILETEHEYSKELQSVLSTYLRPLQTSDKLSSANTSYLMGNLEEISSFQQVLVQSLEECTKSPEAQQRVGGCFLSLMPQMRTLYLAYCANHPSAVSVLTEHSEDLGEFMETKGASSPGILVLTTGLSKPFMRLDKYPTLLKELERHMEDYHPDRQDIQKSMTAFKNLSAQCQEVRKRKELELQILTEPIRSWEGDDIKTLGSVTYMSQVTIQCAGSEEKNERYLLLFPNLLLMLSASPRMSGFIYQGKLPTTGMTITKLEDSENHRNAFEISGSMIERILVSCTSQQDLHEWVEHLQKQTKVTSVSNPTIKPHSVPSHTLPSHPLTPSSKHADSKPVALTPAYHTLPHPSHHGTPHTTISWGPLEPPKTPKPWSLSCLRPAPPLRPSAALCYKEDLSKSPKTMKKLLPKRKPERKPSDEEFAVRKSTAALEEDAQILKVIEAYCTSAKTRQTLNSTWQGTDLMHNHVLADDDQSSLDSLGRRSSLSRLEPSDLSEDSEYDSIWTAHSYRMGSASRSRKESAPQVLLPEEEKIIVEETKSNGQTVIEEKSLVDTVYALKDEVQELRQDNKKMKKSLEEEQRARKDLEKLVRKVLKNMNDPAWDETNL
Assay: co-IP

Chains of the proteins cited; added tags and fusions are not shown. Residues count along the entry.
UniProt P35951, residues 22-862: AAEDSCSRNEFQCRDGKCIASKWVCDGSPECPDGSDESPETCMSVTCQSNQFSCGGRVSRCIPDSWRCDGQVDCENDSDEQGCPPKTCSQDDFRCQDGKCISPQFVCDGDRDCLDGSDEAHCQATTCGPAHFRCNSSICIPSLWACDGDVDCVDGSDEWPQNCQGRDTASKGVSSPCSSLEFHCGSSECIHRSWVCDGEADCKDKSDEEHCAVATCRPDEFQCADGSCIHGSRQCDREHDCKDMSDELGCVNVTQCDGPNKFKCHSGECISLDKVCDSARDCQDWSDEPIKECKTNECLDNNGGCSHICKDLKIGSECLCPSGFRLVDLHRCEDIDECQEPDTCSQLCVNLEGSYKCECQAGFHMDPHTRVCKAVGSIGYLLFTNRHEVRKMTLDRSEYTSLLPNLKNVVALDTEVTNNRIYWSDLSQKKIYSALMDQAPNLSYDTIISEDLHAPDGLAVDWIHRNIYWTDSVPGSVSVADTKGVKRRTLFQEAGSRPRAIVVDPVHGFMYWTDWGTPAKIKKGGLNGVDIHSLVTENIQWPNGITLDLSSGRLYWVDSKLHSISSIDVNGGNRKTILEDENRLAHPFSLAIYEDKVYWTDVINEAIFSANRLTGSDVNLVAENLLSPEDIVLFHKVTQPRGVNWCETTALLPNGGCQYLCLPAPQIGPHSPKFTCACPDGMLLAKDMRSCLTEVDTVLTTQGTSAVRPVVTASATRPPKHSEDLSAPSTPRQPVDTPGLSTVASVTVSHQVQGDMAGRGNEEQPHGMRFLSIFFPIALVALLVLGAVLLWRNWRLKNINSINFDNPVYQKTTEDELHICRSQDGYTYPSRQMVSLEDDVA

binding: binds
Substance: low density lipoprotein receptor (LDLR), endogenous in mouse kidney (from UniProt P35951 22-862)

Reference: doi:10.1101/2020.11.06.372292
